Results from US12691103B2 (Jinan University, priority 2022, dated 2026).

Legend:
[1] = test system: busulfan-modeled mice
[2] = test system: busulfan-modeled mice; conditions: administration group versus model group (no sperm)
[3] = cited from earlier work
[4] = test system: synaptonemal complex protein 3 (SYCP3); assay: Immunofluorescence detection of SYCP3 in frozen sections of testes; conditions: inferred from SYCP3 expression in testes of model mice
[5] = intraperitoneal (3, 6 mg/kg) or oral (5 mg/kg) for 7 days, compared with the model group

Which “amplitude of lateral head displacement (ALH) of the sperm” value [1, 5] does the source give for `Nc1nc2ccc(OC(F)(F)F)cc2s1` [riluzole, 2-amino-6-trifluomethoxy-benzothiazole] here?
The value was “increasing”.

And the “beat cross frequency (BCF) of the sperm” value [1, 5]?
Its value is “increasing”.

What about the sperm abnormality rate [1, 5] of the same molecule?
Its sperm abnormality rate is “significantly reduces”.

What about the sperm motility rate [1, 5] of the same molecule?
The sperm motility rate was “increases”.

And the sperm regeneration [1, 5]?
Its sperm regeneration is “promotes”.

And the “straight line velocity (VSL) of the sperm” value [1, 5]?
The value was “increasing”.

What about the “straightness (STR) of the sperm” value [1, 5] of the same molecule?
Its value is “increasing”.

And the number of sperm ([1]; intraperitoneal (3, 6 mg/kg) or oral (5 mg/kg) for 7 days, compared with the model group, tail of epididymis)?
The number of sperm was “increases”.

And the sperm survival rate ([1]; mouse, in vivo)?
Its sperm survival rate is “increases”.

What about the “therapeutic effect on the oligospermia” value ([1]; mouse, in vivo) of the same molecule?
Its value is “has a therapeutic effect”.

What about the “sperm in the tubules, HE staining of epididymis” value [2] of the same molecule?
Its value is “some sperm regeneration”.

What about the “volume of distribution (Vd)” value ([3]; in vivo) of the same molecule?
Its value is “about 3.4 L/kg”.

And the absolute bioavailability ([3]; oral administration)?
Its absolute bioavailability is “about 60%”.

And the differentiation of spermatogonium [4]?
The differentiation of spermatogonium was “promotes”.
